From the supplement of paper PMC10331698
± gives the standard deviation of the averaged measurements. Small differences around the control level are noise.

Assays:
Experiment in all cases: level (log10 ratio to DMSO vehicle control); higher = higher biomarker level / cell amount than vehicle control
[1] = compound: C=C(C)C(=O)OCCC(F)(F)C(F)(F)C(F)(F)C(F)(F)C(F)(C(F)(F)F)C(F)(F)F [(Perfluoro-5-methylhexyl)ethyl 2-methylprop-2-enoate]; conditions: in DMSO
Procedure: (§1)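 BioMAP Diversity Plus panel of 12 human primary cell co-culture systems (3C, 4H, LPS, SAg, BT, BF4T, BE3C, CASM3C, HDF3CGF, KF3CT, MyoF, Mphg). Compounds were added 1 h before stimulation and left for 24 h (MyoF 48 h; BT 72 h for soluble read-outs or 6 d for IgG). Biomarkers were read by ELISA, cytotoxicity by SRB, PBMC viability and proliferation by Alamar Blue. Each well value was divided by the mean of 8 DMSO control wells on the same plate and log10 transformed; duplicate blinded samples were tested at 4 concentrations.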

[2] = compound: O=S(=O)(O)CCC(F)(F)C(F)(F)C(F)(F)C(F)(F)C(F)(F)C(F)(F)F [6:2 Fluorotelomer sulfonic acid]; conditions: in DMSO
Procedure: as §1

[3] = compound: NC(=O)C(F)(F)C(F)(F)C(F)(F)C(F)(F)C(N)=O [Octafluoroadipamide]; conditions: 2200 nM; in DMSO
Procedure: as §1

[4] = compound: O=C(O)C(F)(F)C(F)(F)C(=O)O [Tetrafluorosuccinic acid]; conditions: 2200 nM; in DMSO
Procedure: as §1

[5] = compound: OCCC(F)(F)C(F)(F)C(F)(F)C(F)(F)F [4:2 Fluorotelomer alcohol]; conditions: 2200 nM; in DMSO
Procedure: as §1

[6] = compound: O=C(O)C(F)(F)C(F)(F)C(F)(F)C(F)(F)C(F)(F)C(F)(F)C(F)(F)C(F)(F)Cl [9-Chloro-perfluorononanoic acid]; conditions: in DMSO
Procedure: as §1

[7] = compound: FC(F)(F)C(F)(F)C(F)(F)C(F)(F)C(F)(F)CCI [1-Iodo-1H,1H,2H,2H-perfluoroheptane]; conditions: 2200 nM; in DMSO
Procedure: as §1

[8] = compound: O=S(=O)(O)C(F)(F)C(F)(F)OC(F)(F)C(F)(F)F [Perfluoro(2-ethoxyethane)sulfonic acid]; conditions: 2200 nM; in DMSO
Procedure: as §1

[9] = compound: OC(C(F)(F)F)(C(F)(F)F)C(O)(C(F)(F)F)C(F)(F)F [Perfluoropinacol]; conditions: in DMSO
Procedure: as §1

[10] = compound: COC(=O)CCC(F)(F)C(F)(F)C(F)(F)C(F)(F)F [Methyl 2H,2H,3H,3H-perfluoroheptanoate]; conditions: 2200 nM; in DMSO
Procedure: as §1

[11] = compound: O=C(O)CCC(F)(F)C(F)(F)C(F)(F)C(F)(F)C(F)(F)F [2H,2H,3H,3H-Perfluorooctanoic acid]; conditions: 2200 nM; in DMSO
Procedure: as §1

[12] = compound: C=C(C)C(=O)OCCC(F)(F)C(F)(F)C(F)(F)C(F)(F)C(F)(F)C(F)(F)C(F)(F)C(F)(F)F [8:2 Fluorotelomer methacrylate]; conditions: in DMSO
Procedure: as §1

[13] = compound: NS(=O)(=O)C(F)(F)C(F)(F)C(F)(F)C(F)(F)C(F)(F)C(F)(F)F [Perfluorohexanesulfonamide]; conditions: 2200 nM; in DMSO
Procedure: as §1

[14] = compound: NC(=O)C(F)(F)C(F)(F)C(F)(F)C(F)(F)F [Nonafluoropentanamide]; conditions: 2200 nM; in DMSO
Procedure: as §1

Test System	level (log10) ([1]; 740 nM)	level (log10) ([1]; 2200 nM)	level (log10) ([1]; 6700 nM)	level (log10) ([1]; 20000 nM)	level (log10) ([2]; 2200 nM)	level (log10) ([2]; 6700 nM)	level (log10) ([2]; 20000 nM)	level (log10) ([2]; 60000 nM)	level (log10) [3]	level (log10) [4]	level (log10) [5]	level (log10) ([6]; 2200 nM)	level (log10) ([6]; 6700 nM)	level (log10) ([6]; 20000 nM)	level (log10) [7]	level (log10) [8]	level (log10) ([9]; 2200 nM)	level (log10) ([9]; 6700 nM)	level (log10) ([9]; 20000 nM)	level (log10) [10]	level (log10) [11]	level (log10) ([12]; 740 nM)	level (log10) ([12]; 2200 nM)	level (log10) [13]	level (log10) [14]
MyoF:Collagen I	-0.0235 ± 0.0064	-0.02	-0.0325 ± 0.037	-0.037 ± 0.02	0.026 ± 0.03	0.011 ± 0.025	-0.022 ± 0.016	0 ± 0.0085	0.007 ± 0.028	-0.0115 ± 0.016	-0.008 ± 0.033	-0.0125 ± 0.033	-0.0135 ± 0.005	-0.29 ± 0.019	0.0015 ± 0.015	0.0225 ± 0.005	0.0095 ± 0.011	0.044	-0.006 ± 0.0099	0.0045 ± 0.013	0.0065 ± 0.032	-0.0045 ± 0.029	0 ± 0.0028	0.001 ± 0.0042	-0.0115 ± 0.022
3C:CD54/ICAM-1	0.002 ± 0.0042	-0.0125 ± 0.013	-0.009 ± 0.0014	-0.01 ± 0.0071	-0.0025 ± 0.015	-0.012 ± 0.021	-0.006 ± 0.021	-0.004 ± 0.011	-0.0005 ± 0.0035	-0.008 ± 0.0099	-0.0015 ± 0.029	0.001 ± 0.025	-0.0075 ± 0.0092	-0.0085 ± 0.019	0.022 ± 0.025	-0.006 ± 0.011	0.0045 ± 0.011	0.0055 ± 0.0021	-0.0005 ± 0.021	0.0095 ± 0.005	-0.004 ± 0.0057	-0.0085 ± 0.0021	0.001 ± 0.0028	0.0175 ± 0.019	0.0025 ± 0.0064
KF3CT:CXCL9/MIG	0.0145 ± 0.013	0.0095 ± 0.022	0.018 ± 0.014	0.0215 ± 0.023	-0.005 ± 0.0085	0.0005 ± 0.013	-0.0025 ± 0.022	0.0005 ± 0.013	0.008 ± 0.023	-0.004 ± 0.016	-0.0105 ± 0.011	-0.007 ± 0.014	0.0025 ± 0.0092	-0.0015 ± 0.0021	0.0085 ± 0.0064	0.0085 ± 0.016	0.004 ± 0.018	0.002 ± 0.0028	-0.004 ± 0.0071	0.001 ± 0.014	-0.0075 ± 0.016	0.003 ± 0.0071	-0.0045 ± 0.0092	-0.0025 ± 0.0092	0.0165 ± 0.0078
BF4T:MMP-9	-0.0255 ± 0.043	-0.0115 ± 0.021	-0.036 ± 0.05	-0.007 ± 0.038	0.0085 ± 0.05	-0.0015 ± 0.036	-0.0095 ± 0.0078	0.018 ± 0.024	0.0015 ± 0.029	-0.0015 ± 0.018	-0.011 ± 0.027	-0.028 ± 0.064	-0.0395 ± 0.036	-0.0715 ± 0.019	-0.004 ± 0.033	0.015 ± 0.033	-0.0035 ± 0.023	-0.0245 ± 0.00071	-0.0515 ± 0.0092	-0.008 ± 0.014	0.0085 ± 0.059	0.028 ± 0.1	0.0125 ± 0.077	0.0215 ± 0.035	-0.028 ± 0.016
MyoF:bFGF	-0.0185 ± 0.0021	0.021 ± 0.0057	-0.0015 ± 0.005	0.002 ± 0.0014	0.007 ± 0.016	-0.0065 ± 0.0078	0.019 ± 0.013	0.0235 ± 0.044	0.004 ± 0.031	-0.005 ± 0.011	0.002 ± 0.024	0.004 ± 0.018	-0.003 ± 0.023	0.0085 ± 0.011	0.0015 ± 0.013	0.02 ± 0.014	-0.0135 ± 0.011	-0.0075 ± 0.012	-0.0225 ± 0.0092	-0.024 ± 0.025	0.005 ± 0.013	0.0025 ± 0.0035	0.0095 ± 0.0064	0.0025 ± 0.0078	0.0185 ± 0.028
lMphg:CCL3/MIP-1alpha	0.014 ± 0.0028	0.025 ± 0.061	-0.008 ± 0.034	-0.0125 ± 0.044	0.0185 ± 0.053	0.014 ± 0.021	0.072 ± 0.02	0.0565 ± 0.039	-0.0065 ± 0.019	0.0095 ± 0.00071	-0.003 ± 0.045	0.034 ± 0.065	0.0205 ± 0.029	0.0045 ± 0.046	0.038 ± 0.0042	0.021 ± 0.0028	0.0775 ± 0.049	0.116 ± 0.047	0.116 ± 0.062	-0.0045 ± 0.032	0.038 ± 0.079	0.0035 ± 0.03	-0.01 ± 0.0028	0.0035 ± 0.0078	0.0005 ± 0.025
MyoF:Collagen III	-0.028 ± 0.0014	-0.028 ± 0.0057	-0.0135 ± 0.052	-0.0455 ± 0.04	-0.021 ± 0.034	-0.011 ± 0.013	-0.02 ± 0.017	-0.0055 ± 0.015	-0.0025 ± 0.00071	-0.0185 ± 0.0078	0.0045 ± 0.016	-0.0245 ± 0.013	-0.033 ± 0.027	-0.498 ± 0.0085	0.0005 ± 0.021	-0.0095 ± 0.005	-0.0255 ± 0.0021	-0.0405 ± 0.011	-0.136 ± 0.0014	-0.023 ± 0.02	-0.0225 ± 0.023	-0.0175 ± 0.0078	-0.0065 ± 0.011	0 ± 0.013	-0.04 ± 0.013
3C:CXCL8/IL-8	0.0315 ± 0.013	0.0185 ± 0.042	0.0105 ± 0.03	0.054 ± 0.086	0.01 ± 0.1	-0.034 ± 0.055	-0.0325 ± 0.053	0.06 ± 0.0085	0.0325 ± 0.11	-0.011 ± 0.0085	0.029 ± 0.037	-0.0005 ± 0.029	0.005 ± 0.037	0.0235 ± 0.063	-0.0005 ± 0.013	0.0565 ± 0.019	0.003 ± 0.035	0.0215 ± 0.012	-0.0255 ± 0.026	-0.0025 ± 0.061	0.008 ± 0.089	0.011 ± 0.047	-0.0135 ± 0.025	0.02 ± 0.062	0.007 ± 0.035
3C:CD62E/E-Selectin	-0.003	0.0015 ± 0.0021	-0.0095 ± 0.018	-0.0175 ± 0.0021	-0.013 ± 0.021	-0.021 ± 0.034	0.003 ± 0.048	0.026 ± 0.038	-0.0085 ± 0.028	-0.011 ± 0.034	-0.0075 ± 0.0021	0.015 ± 0.018	-0.005 ± 0.0057	0.001 ± 0.017	0.015 ± 0.02	0.019 ± 0.031	-0.009 ± 0.018	-0.007 ± 0.013	-0.0605 ± 0.03	-0.014 ± 0.0071	-0.0055 ± 0.025	-0.008 ± 0.0071	-0.0165 ± 0.00071	-0.0005 ± 0.029	-0.022 ± 0.041
BF4T:IL-1alpha	-0.003 ± 0.0042	-0.011 ± 0.013	-0.0155 ± 0.021	-0.014 ± 0.03	0.01 ± 0.023	0.006 ± 0.0085	0.0005 ± 0.0092	0.023 ± 0.018	0.0135 ± 0.025	0.04 ± 0.038	-0.0015 ± 0.029	-0.0015 ± 0.005	0.0205 ± 0.0035	-0.023 ± 0.011	-0.0085 ± 0.012	0.0105 ± 0.021	0.0085 ± 0.022	0.0025 ± 0.012	-0.025 ± 0.0057	0.0135 ± 0.025	0.006 ± 0.02	0.0005 ± 0.023	0.0035 ± 0.012	0.006 ± 0.0071	-0.011 ± 0.011
